Source: PubChem BioAssay AID188 (DTP/NCI, 2004)
The mice bore no tumour; each value counts animals alive of those treated. Survivors were counted at the toxicity check, usually on the fifth day, unless a day is given; later deaths do not show. Schedules are NCI's codes, read here as Q, the interval in days (D) or hours (H), X, the number of doses.

System: CD2F1 mice, nontumored, toxicity/survival
Assay: NCI In Vivo Anticancer Drug Screen. Data for tumor model Nontumored Animals (Toxicity Test) in CD2F1 (CDF1) mice
[1] = dose: 100.0 mg/kg/injection, schedule: Q01DX001 (ip), vehicle: other
[2] = dose: 1.0 mg/kg/injection, schedule: Q01DX001 (ip), vehicle: water
[3] = dose: 10.0 mg/kg/injection, schedule: Q01DX001 (ip), vehicle: water
[4] = dose: 100.0 mg/kg/injection, schedule: Q01DX001 (ip), vehicle: water

Q: `O=C1N[C@@H]([C@H]2CC[C@H](Cl)CN2)C(=O)N[C@H]1[C@H]1CC[C@H](Cl)CN1` was tested. Which survivor count (dose: 0.25 mg/kg/injection, schedule: Q01DX009 (iv), vehicle: saline) did it give?
A: 8 of 8

Q: What about the survivor count (dose: 0.25 mg/kg/injection, schedule: Q03HX016 (ip), vehicle: saline) of the same molecule?
A: 8 of 8

Q: What about the survivor count (dose: 0.25 mg/kg/injection, schedule: Q03HX024 (ip), vehicle: saline) of the same molecule?
A: 8 of 8

Q: What about the survivor count (dose: 0.5 mg/kg/injection, schedule: Q01DX009 (ip), vehicle: saline) of the same molecule?
A: 8 of 8

Q: What about the survivor count (dose: 0.5 mg/kg/injection, schedule: Q01DX009 (iv), vehicle: saline) of the same molecule?
A: 8 of 8

Q: And the survivor count (dose: 0.5 mg/kg/injection, schedule: Q01DX009 (oral), vehicle: saline)?
A: 8 of 8

Q: And the survivor count (dose: 0.5 mg/kg/injection, schedule: Q01DX009 (sc), vehicle: saline)?
A: 8 of 8

Q: And the survivor count (dose: 0.5 mg/kg/injection, schedule: Q03HX008 (ip), vehicle: saline)?
A: 8 of 8

Q: And the survivor count (dose: 0.5 mg/kg/injection, schedule: Q03HX016 (ip), vehicle: saline)?
A: 8 of 8

Q: And the survivor count (dose: 0.5 mg/kg/injection, schedule: Q03HX024 (ip), vehicle: saline)?
A: 8 of 8

Q: And the survivor count (dose: 1.0 mg/kg/injection, schedule: Q01DX001 (iv), vehicle: saline)?
A: 8 of 8

Q: And the survivor count (dose: 1.0 mg/kg/injection, schedule: Q01DX009 (ip), vehicle: saline)?
A: 8 of 8

Q: What about the survivor count (dose: 1.0 mg/kg/injection, schedule: Q01DX009 (iv), vehicle: saline) of the same molecule?
A: 8 of 8

Q: What about the survivor count (dose: 1.0 mg/kg/injection, schedule: Q01DX009 (oral), vehicle: saline) of the same molecule?
A: 8 of 8

Q: What about the survivor count (dose: 1.0 mg/kg/injection, schedule: Q01DX009 (sc), vehicle: saline) of the same molecule?
A: 8 of 8

Q: And the survivor count (dose: 1.0 mg/kg/injection, schedule: Q03HX008 (ip), vehicle: saline)?
A: 8 of 8

Q: What about the survivor count (dose: 1.0 mg/kg/injection, schedule: Q03HX016 (ip), vehicle: saline) of the same molecule?
A: 8 of 8

Q: And the survivor count (dose: 1.0 mg/kg/injection, schedule: Q03HX024 (ip), vehicle: saline)?
A: 8 of 8

Q: And the survivor count (dose: 1.0 mg/kg/injection, schedule: Q04DX003 (ip), vehicle: saline)?
A: 8 of 8

Q: What about the survivor count (dose: 1.0 mg/kg/injection, schedule: Q08DX002 (ip), vehicle: saline) of the same molecule?
A: 8 of 8

Q: And the survivor count (dose: 2.0 mg/kg/injection, schedule: Q01DX001 (ip), vehicle: saline)?
A: 8 of 8

Q: And the survivor count (dose: 2.0 mg/kg/injection, schedule: Q01DX001 (iv), vehicle: saline)?
A: 8 of 8

Q: What about the survivor count (dose: 2.0 mg/kg/injection, schedule: Q01DX001 (oral), vehicle: saline) of the same molecule?
A: 8 of 8

Q: And the survivor count (dose: 2.0 mg/kg/injection, schedule: Q01DX001 (sc), vehicle: saline)?
A: 8 of 8

Q: And the survivor count (dose: 2.0 mg/kg/injection, schedule: Q01DX009 (ip), vehicle: saline)?
A: 8 of 8

Q: And the survivor count (dose: 2.0 mg/kg/injection, schedule: Q01DX009 (iv), vehicle: saline)?
A: 8 of 8

Q: And the survivor count (dose: 2.0 mg/kg/injection, schedule: Q01DX009 (oral), vehicle: saline)?
A: 8 of 8

Q: And the survivor count (dose: 2.0 mg/kg/injection, schedule: Q01DX009 (sc), vehicle: saline)?
A: 8 of 8

Q: And the survivor count (dose: 2.0 mg/kg/injection, schedule: Q03HX008 (ip), vehicle: saline)?
A: 8 of 8

Q: And the survivor count (dose: 2.0 mg/kg/injection, schedule: Q03HX016 (ip), vehicle: saline)?
A: 8 of 8

Q: And the survivor count (dose: 2.0 mg/kg/injection, schedule: Q03HX024 (ip), vehicle: saline)?
A: 8 of 8

Q: What about the survivor count (dose: 2.0 mg/kg/injection, schedule: Q04DX003 (ip), vehicle: saline) of the same molecule?
A: 8 of 8

Q: What about the survivor count (dose: 2.0 mg/kg/injection, schedule: Q08DX002 (ip), vehicle: saline) of the same molecule?
A: 8 of 8

Q: And the survivor count (dose: 4.0 mg/kg/injection, schedule: Q01DX001 (ip), vehicle: saline)?
A: 8 of 8

Q: And the survivor count (dose: 4.0 mg/kg/injection, schedule: Q01DX001 (iv), vehicle: saline)?
A: 8 of 8

Q: And the survivor count (dose: 4.0 mg/kg/injection, schedule: Q01DX001 (oral), vehicle: saline)?
A: 8 of 8

Q: What about the survivor count (dose: 4.0 mg/kg/injection, schedule: Q01DX001 (sc), vehicle: saline) of the same molecule?
A: 8 of 8

Q: And the survivor count (dose: 4.0 mg/kg/injection, schedule: Q01DX009 (ip), vehicle: saline)?
A: 8 of 8

Q: And the survivor count (dose: 4.0 mg/kg/injection, schedule: Q01DX009 (iv), vehicle: saline)?
A: 8 of 8

Q: And the survivor count (dose: 4.0 mg/kg/injection, schedule: Q01DX009 (oral), vehicle: saline)?
A: 8 of 8

Q: What about the survivor count (dose: 4.0 mg/kg/injection, schedule: Q01DX009 (sc), vehicle: saline) of the same molecule?
A: 8 of 8

Q: And the survivor count (dose: 4.0 mg/kg/injection, schedule: Q03HX008 (ip), vehicle: saline)?
A: 8 of 8

Q: What about the survivor count (dose: 4.0 mg/kg/injection, schedule: Q03HX016 (ip), vehicle: saline) of the same molecule?
A: 2 of 8

Q: What about the survivor count (dose: 4.0 mg/kg/injection, schedule: Q03HX024 (ip), vehicle: saline) of the same molecule?
A: 4 of 8

Q: And the survivor count (dose: 4.0 mg/kg/injection, schedule: Q04DX003 (ip), vehicle: saline)?
A: 8 of 8

Q: What about the survivor count (dose: 4.0 mg/kg/injection, schedule: Q08DX002 (ip), vehicle: saline) of the same molecule?
A: 8 of 8

Q: And the survivor count (dose: 4.4 mg/kg/injection, schedule: Q01DX001 (ip), vehicle: saline)?
A: 10 of 10

Q: What about the survivor count (dose: 6.6 mg/kg/injection, schedule: Q01DX001 (ip), vehicle: saline) of the same molecule?
A: 10 of 10

Q: What about the survivor count (dose: 8.0 mg/kg/injection, schedule: Q01DX001 (ip), vehicle: saline) of the same molecule?
A: 8 of 8

Q: And the survivor count (dose: 8.0 mg/kg/injection, schedule: Q01DX001 (iv), vehicle: saline)?
A: 8 of 8

Q: What about the survivor count (dose: 8.0 mg/kg/injection, schedule: Q01DX001 (oral), vehicle: saline) of the same molecule?
A: 8 of 8

Q: What about the survivor count (dose: 8.0 mg/kg/injection, schedule: Q01DX001 (sc), vehicle: saline) of the same molecule?
A: 8 of 8

Q: And the survivor count (dose: 8.0 mg/kg/injection, schedule: Q01DX009 (ip), vehicle: saline)?
A: 7 of 8

Q: What about the survivor count (dose: 8.0 mg/kg/injection, schedule: Q01DX009 (oral), vehicle: saline) of the same molecule?
A: 8 of 8

Q: And the survivor count (dose: 8.0 mg/kg/injection, schedule: Q01DX009 (sc), vehicle: saline)?
A: 7 of 8

Q: And the survivor count (dose: 8.0 mg/kg/injection, schedule: Q03HX008 (ip), vehicle: saline)?
A: 7 of 8

Q: And the survivor count (dose: 8.0 mg/kg/injection, schedule: Q04DX003 (ip), vehicle: saline)?
A: 8 of 8

Q: And the survivor count (dose: 8.0 mg/kg/injection, schedule: Q08DX002 (ip), vehicle: saline)?
A: 8 of 8

Q: What about the survivor count (dose: 10.0 mg/kg/injection, schedule: Q01DX001 (ip), vehicle: saline) of the same molecule?
A: 10 of 10

Q: And the survivor count (dose: 16.0 mg/kg/injection, schedule: Q01DX001 (ip), vehicle: saline)?
A: 5 of 8

Q: And the survivor count (dose: 16.0 mg/kg/injection, schedule: Q01DX001 (iv), vehicle: saline)?
A: 8 of 8

Q: What about the survivor count (dose: 16.0 mg/kg/injection, schedule: Q01DX001 (oral), vehicle: saline) of the same molecule?
A: 5 of 8

Q: What about the survivor count (dose: 16.0 mg/kg/injection, schedule: Q01DX001 (sc), vehicle: saline) of the same molecule?
A: 3 of 8

Q: What about the survivor count (dose: 16.0 mg/kg/injection, schedule: Q04DX003 (ip), vehicle: saline) of the same molecule?
A: 6 of 8

Q: What about the survivor count (dose: 16.0 mg/kg/injection, schedule: Q08DX002 (ip), vehicle: saline) of the same molecule?
A: 5 of 8

Q: And the survivor count (dose: 32.0 mg/kg/injection, schedule: Q01DX001 (ip), vehicle: saline)?
A: 4 of 8

Q: What about the survivor count (dose: 32.0 mg/kg/injection, schedule: Q01DX001 (oral), vehicle: saline) of the same molecule?
A: 2 of 8

Q: And the survivor count (dose: 32.0 mg/kg/injection, schedule: Q01DX001 (sc), vehicle: saline)?
A: 5 of 8

Q: How did the survivor count (dose: 1.0 mg/kg/injection, schedule: Q01DX001 (ip), vehicle: other) turn out when `COc1cc2c3c(c1)-c1c(ccc(OC)c1Oc1nnnn1-c1ccccc1)CC3N(C)CC2` (configuration not stated) was run?
A: 2 of 2

Q: What about the survivor count (dose: 10.0 mg/kg/injection, schedule: Q01DX001 (ip), vehicle: other) of the same molecule?
A: 2 of 2

Q: And the survivor count [1]?
A: 2 of 2

Q: With `O=[N+]([O-])c1cnc[nH]1` as the molecule, how does the survivor count (dose: 62.5 mg/kg/injection, schedule: Q01DX005 (ip), vehicle: saline with Tween-80) read?
A: 3 of 3

Q: And the survivor count (dose: 125.0 mg/kg/injection, schedule: Q01DX005 (ip), vehicle: saline with Tween-80)?
A: 3 of 3

Q: What about the survivor count (dose: 250.0 mg/kg/injection, schedule: Q01DX001 (ip), vehicle: saline with Tween-80) of the same molecule?
A: 3 of 3

Q: What about the survivor count (dose: 250.0 mg/kg/injection, schedule: Q01DX005 (ip), vehicle: saline with Tween-80) of the same molecule?
A: 3 of 3

Q: And the survivor count (dose: 500.0 mg/kg/injection, schedule: Q01DX001 (ip), vehicle: saline with Tween-80)?
A: 3 of 3

Q: And the survivor count (dose: 500.0 mg/kg/injection, schedule: Q01DX005 (ip), vehicle: saline with Tween-80)?
A: 2 of 3

Q: And the survivor count (dose: 1000.0 mg/kg/injection, schedule: Q01DX001 (ip), vehicle: saline with Tween-80)?
A: 2 of 3

Q: For `COCN(COC)c1nc(CCC(Br)(Br)Br)nc(N(COC)COC)n1`, which survivor count [2] is on record?
A: 2 of 2

Q: What about the survivor count [3] of the same molecule?
A: 2 of 2

Q: And the survivor count [4]?
A: 2 of 2

Q: How did the survivor count [2] turn out when `CCOc1ccc(-c2nc(N)nc(N)n2)cc1` was run?
A: 2 of 2

Q: And the survivor count [3]?
A: 2 of 2

Q: What about the survivor count [4] of the same molecule?
A: 2 of 2

Q: How did the survivor count (dose: 1.0 mg/kg/injection, schedule: Q01DX001 (ip), vehicle: DMSO) turn out when `CC(=O)Nc1nc(Br)c2ccccc2c1-c1ccc(N(CCO)CCOS(C)(=O)=O)cc1` was run?
A: 1 of 2

Q: And the survivor count (dose: 10.0 mg/kg/injection, schedule: Q01DX001 (ip), vehicle: DMSO)?
A: 2 of 2

Q: And the survivor count (dose: 100.0 mg/kg/injection, schedule: Q01DX001 (ip), vehicle: DMSO)?
A: 2 of 2

Q: Which results are given for `CCN(CC)c1ccc(C(C#N)(c2ccc(N(CC)Cc3cccc(S(=O)(=O)O)c3)cc2)c2ccc(N(CC)Cc3cccc(S(=O)(=O)O)c3)cc2)cc1`?
A: survivor count (dose: 25.0 mg/kg/injection, schedule: Q01DX005 (ip), vehicle: saline with Tween-80): 3 of 3; survivor count (dose: 50.0 mg/kg/injection, schedule: Q01DX001 (ip), vehicle: other): 3 of 3; survivor count (dose: 50.0 mg/kg/injection, schedule: Q01DX005 (ip), vehicle: saline with Tween-80): 3 of 3; survivor count [1]: 3 of 3; survivor count (dose: 100.0 mg/kg/injection, schedule: Q01DX005 (ip), vehicle: saline with Tween-80): 3 of 3; survivor count (dose: 200.0 mg/kg/injection, schedule: Q01DX001 (ip), vehicle: other): 3 of 3; survivor count (dose: 200.0 mg/kg/injection, schedule: Q01DX005 (ip), vehicle: saline with Tween-80): 3 of 3; survivor count (dose: 400.0 mg/kg/injection, schedule: Q01DX001 (ip), vehicle: other): 2 of 3

Q: `CCCCCNC(=O)CCC(NC(=O)c1ccc(N(C)Cc2cnc3nc(N)nc(N)c3n2)cc1)C(=O)O` (configuration not stated) was tested. Which survivor count (dose: 88.0 mg/kg/injection, schedule: Q01DX009 (ip), vehicle: sodium bicarbonate) did it give?
A: 6 of 6

Q: And the survivor count (dose: 134.0 mg/kg/injection, schedule: Q01DX009 (ip), vehicle: sodium bicarbonate)?
A: 6 of 6
